Data reported in US10196286B2, “Method for removing fluorinated organic compounds from contaminated fluids, and adsorbent component and adsorbent kit used therefor” (Fraunhofer-Gesellschaft zur Förderung der angewandten …, priority 2013, dated 2019).

How the values were obtained:
[1] = First adsorbent component without solid adsorbent component: precipitation of adduct from raw water
[2] = Adsorption in batch processing (stirred tank reactor sorption), Examples 1 to 10; conditions: reagent 1 1 ml/l

| Molecule | precipitation of the formed adduct after contact with raw water [1] | residual PFT concentration in the treated raw water [1] | Concentration PFT (residual concentration of PFT in the filtrate) ([2]; Conc. PFTsorb 25 mg/l) [µg/L] | Concentration PFT (residual concentration of PFT in the filtrate) ([2]; Conc. PFTsorb 50 mg/l) [µg/L] | Concentration PFT (residual concentration of PFT in the filtrate) ([2]; Conc. PFTsorb 75 mg/l) [µg/L] | Concentration PFT (residual concentration of PFT in the filtrate) ([2]; Conc. PFTsorb 100 mg/l) [µg/L] |
| --- | --- | --- | --- | --- | --- | --- |
| 1-propanaminium-3-amino-N-carboxymethyl-N,N-dimethyl-N-C8-C18 acyl derivative [Tego Betaine F50] | visually easy to perceive precipitation products | clearly reduced | – | – | – | – |
| CCCCCCCCCCCC[N+](C)(C)CC(O)CCl.[Cl-] (centres unmarked) [Example 1, 3-chloro-2-hydroxy-propyl dimethyl dodecyl ammonium chloride] | – | – | 2.08 | 1.08 | 0.74 | 0.48 |
| dioleoyl ethyl-hydroxyethylmonium methosulfate | visually easy to perceive precipitation products | clearly reduced | – | – | – | – |
| CCCCCCCCCCCC[N+](C)(C)C.[Cl-] [Example 3, (1-dodecyl)trimethyl ammonium chloride] | – | – | 3.65 | 1.09 | 0.62 | 0.34 |
| hydrolyzed 3-chloro-2-hydroxy-propyl dimethyl dodecyl ammonium chloride [Example 2] | – | – | 3.83 | 2.08 | 1.03 | 0.54 |
| CCCCCCCCCCCCCC[N+](C)(C)C.[Cl-] [Example 4, (1-tetradecyl)trimethyl ammonium chloride] | – | – | 3.23 | 1.1 | 0.65 | 0.32 |
